Measured values: PMC7590665
Results are given in words; binding and its absence hold for the method and conditions named. Some results given as binding are weak or reduced against the parent protein; the word gives no strength.

Amino acid sequences for entries named in this document (tags omitted). Residues count along the entry.
UniProt P0AE72: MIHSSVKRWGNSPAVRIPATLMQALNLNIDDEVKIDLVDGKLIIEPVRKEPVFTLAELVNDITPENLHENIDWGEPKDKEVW
UniProt P0AE70, residues 2-111: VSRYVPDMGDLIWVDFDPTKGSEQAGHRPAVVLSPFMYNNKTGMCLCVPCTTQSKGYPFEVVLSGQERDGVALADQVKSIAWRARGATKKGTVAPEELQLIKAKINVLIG

Biological target: MazE antitoxin (E. coli) (UniProt P0AE72)
Test: co-purification

MazF toxin (from UniProt P0AE70 2-111)
binding: binds
